# These are yes or no findings as the source states them, for the method shown. Binding seen in cells or lysates may run through a third protein. These calls come from enrichment with a bait or labelling near it, and not all partners need be listed.
# Amino acid sequences for entries named in this document (tags omitted). A change or cut given only in a name is not applied to a line headed by its entry. Residues count along the entry.
# UniProt P9WMK7, 3-216, stated change not applied: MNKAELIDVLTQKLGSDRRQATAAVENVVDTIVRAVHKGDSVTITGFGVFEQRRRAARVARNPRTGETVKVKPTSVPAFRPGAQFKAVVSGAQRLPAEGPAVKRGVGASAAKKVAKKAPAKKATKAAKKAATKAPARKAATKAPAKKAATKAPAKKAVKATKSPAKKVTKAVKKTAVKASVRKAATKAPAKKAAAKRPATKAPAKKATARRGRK
# Target: Mtb histone like protein HU (MtHU) (Mycobacterium tuberculosis H37Ra (endogenous in Mtb H37Ra lysate)) (UniProt P9WMK7)
# Assay: affinity purification with mass spectrometry
substance,measurement,value
"Rv2067c, methyltransferase of Mycobacterium tuberculosis (endogenous, Mtb H37Ra lysate) (from UniProt P9WLL9 1-407) (enzyme)",binding,binds

# From doi:10.1101/2023.02.24.529973
